By UniProt entry, the sequences of proteins in these tests, tags left out.
UniProt Q14573: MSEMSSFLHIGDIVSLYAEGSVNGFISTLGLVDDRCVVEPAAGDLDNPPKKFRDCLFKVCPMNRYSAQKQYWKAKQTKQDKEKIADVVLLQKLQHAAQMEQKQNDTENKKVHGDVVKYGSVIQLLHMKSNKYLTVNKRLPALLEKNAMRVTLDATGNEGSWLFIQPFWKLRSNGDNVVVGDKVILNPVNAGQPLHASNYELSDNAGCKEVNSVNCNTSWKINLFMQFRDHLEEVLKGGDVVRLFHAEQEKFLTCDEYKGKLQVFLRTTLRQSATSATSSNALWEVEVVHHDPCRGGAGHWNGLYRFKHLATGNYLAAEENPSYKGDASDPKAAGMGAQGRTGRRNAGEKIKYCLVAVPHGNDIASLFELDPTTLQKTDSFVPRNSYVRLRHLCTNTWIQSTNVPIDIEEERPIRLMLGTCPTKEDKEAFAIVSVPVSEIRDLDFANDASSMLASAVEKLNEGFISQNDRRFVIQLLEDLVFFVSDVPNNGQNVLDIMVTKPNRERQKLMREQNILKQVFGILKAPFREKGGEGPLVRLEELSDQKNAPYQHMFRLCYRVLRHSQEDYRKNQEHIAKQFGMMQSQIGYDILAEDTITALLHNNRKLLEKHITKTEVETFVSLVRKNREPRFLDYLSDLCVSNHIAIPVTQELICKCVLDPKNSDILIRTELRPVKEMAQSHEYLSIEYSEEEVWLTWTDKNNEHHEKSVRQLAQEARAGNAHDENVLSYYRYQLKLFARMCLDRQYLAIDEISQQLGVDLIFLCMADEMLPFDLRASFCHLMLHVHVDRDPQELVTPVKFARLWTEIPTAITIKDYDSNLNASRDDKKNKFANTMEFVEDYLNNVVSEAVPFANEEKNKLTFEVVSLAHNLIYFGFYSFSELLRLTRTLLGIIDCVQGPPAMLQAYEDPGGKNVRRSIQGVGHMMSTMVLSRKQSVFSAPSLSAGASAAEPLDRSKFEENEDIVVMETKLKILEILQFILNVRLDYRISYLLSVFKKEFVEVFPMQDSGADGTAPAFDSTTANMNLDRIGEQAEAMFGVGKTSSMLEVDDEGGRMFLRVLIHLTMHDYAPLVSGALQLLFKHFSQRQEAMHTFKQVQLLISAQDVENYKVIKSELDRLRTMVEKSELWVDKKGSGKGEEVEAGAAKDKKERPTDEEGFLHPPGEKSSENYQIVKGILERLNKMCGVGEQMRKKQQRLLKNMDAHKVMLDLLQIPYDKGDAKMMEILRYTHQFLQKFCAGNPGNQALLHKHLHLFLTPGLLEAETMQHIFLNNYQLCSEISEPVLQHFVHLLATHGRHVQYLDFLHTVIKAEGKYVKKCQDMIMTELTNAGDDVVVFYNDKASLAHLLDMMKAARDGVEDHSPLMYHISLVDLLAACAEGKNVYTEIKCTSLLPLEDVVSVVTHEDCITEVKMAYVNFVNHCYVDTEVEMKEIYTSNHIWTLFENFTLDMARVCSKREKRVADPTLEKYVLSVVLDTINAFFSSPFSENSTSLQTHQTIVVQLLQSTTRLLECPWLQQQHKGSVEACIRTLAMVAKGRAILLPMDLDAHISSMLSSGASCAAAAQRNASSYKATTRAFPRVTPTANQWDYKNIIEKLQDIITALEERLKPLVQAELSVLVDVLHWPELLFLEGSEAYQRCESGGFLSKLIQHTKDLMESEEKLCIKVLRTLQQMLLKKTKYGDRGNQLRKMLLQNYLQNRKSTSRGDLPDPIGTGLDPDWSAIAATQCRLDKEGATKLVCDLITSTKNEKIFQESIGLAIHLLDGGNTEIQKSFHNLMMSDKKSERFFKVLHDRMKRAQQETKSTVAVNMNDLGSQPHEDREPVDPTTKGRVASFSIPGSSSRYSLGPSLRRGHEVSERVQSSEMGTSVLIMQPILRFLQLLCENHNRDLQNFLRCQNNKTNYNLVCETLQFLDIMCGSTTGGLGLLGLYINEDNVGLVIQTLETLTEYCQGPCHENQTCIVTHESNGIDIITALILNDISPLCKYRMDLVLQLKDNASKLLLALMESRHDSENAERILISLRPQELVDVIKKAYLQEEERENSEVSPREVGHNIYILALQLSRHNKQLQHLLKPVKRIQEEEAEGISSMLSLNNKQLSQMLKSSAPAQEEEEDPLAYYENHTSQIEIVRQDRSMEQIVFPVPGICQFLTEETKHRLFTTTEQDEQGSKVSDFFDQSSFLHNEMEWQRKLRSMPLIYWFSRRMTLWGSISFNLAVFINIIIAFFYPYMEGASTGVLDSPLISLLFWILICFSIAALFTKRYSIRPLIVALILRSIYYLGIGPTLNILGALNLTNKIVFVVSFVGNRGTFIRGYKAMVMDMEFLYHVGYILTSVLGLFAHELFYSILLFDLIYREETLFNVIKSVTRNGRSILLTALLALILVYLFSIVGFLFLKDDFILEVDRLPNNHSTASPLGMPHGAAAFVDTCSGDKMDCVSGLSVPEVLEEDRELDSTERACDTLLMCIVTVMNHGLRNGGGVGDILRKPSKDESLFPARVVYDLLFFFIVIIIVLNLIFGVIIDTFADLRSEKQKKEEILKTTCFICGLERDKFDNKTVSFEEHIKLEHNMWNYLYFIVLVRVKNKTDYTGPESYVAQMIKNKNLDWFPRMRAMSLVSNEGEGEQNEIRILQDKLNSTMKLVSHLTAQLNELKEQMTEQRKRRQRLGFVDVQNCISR

According to article PMC5627969:

Molecular target: T1, Flag-HA-tagged FBXL2 (human) (UniProt Q9UKC9)
T1 sequence: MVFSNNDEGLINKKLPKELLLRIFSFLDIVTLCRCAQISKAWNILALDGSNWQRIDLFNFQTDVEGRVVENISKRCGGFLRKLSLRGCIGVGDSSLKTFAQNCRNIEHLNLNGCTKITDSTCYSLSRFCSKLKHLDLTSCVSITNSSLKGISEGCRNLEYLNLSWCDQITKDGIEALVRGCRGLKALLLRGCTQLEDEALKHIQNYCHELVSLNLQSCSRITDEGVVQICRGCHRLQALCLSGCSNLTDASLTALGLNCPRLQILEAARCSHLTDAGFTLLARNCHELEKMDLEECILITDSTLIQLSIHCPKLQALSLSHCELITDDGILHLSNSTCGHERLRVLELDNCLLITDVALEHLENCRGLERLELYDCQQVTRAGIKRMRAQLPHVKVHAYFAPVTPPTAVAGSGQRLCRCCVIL
Assay: affinity purification with mass spectrometry; Flag-HA-tagged FBXL2 transiently expressed in HEK293T, MG132 (10 uM) 3 h before harvest, immunopurified, co-purifying proteins by mass spectrometry

binding: binds
Substance: IP3R3 (endogenous, HEK293T) (from UniProt Q14573 1-2671) (receptor)

No constants are given. Whether binding was seen depends on the method and setting. In cells and extracts the contact can be indirect. These calls come from enrichment with a bait or labelling near it, and not all partners need be listed. Where a sequence is shown, tags or fusion partners need not be part of it.
